Measurements: paper PMC7409549, “A time-resolved interaction analysis of Bem1 reconstructs the flow of Cdc42 during polar growth” (Life Science Alliance, 2020)
Results are given in words; binding and its absence hold for the method and conditions named. In cells and extracts the contact can be indirect. For part of these data: Binding can be weak; no strength is given.

Experiments:
Epo1CCG (S. cerevisiae) [1] = assay: split reporter; SPLIFF as a9, measured at the cell front during bud site assembly and bud growth (PCDII)
Epo1CCG (S. cerevisiae) [2] = assay: split reporter; SPLIFF as a9, measured at the bud neck from completion of acto-myosin ring contraction until abscission (PCDIII)
[3] = target: Gps1_(536-758)CRU (S. cerevisiae); assay: split reporter; split-ubiquitin (Split-Ub): CRU and Nub fusions co-expressed in yeast cells, spotted in 10-fold serial dilutions on medium with 1 mg/ml 5-FOA and copper, 30°C; growth = interaction

Row | binding (Epo1CCG (S. cerevisiae) [1]) | binding [3] | Binder | binding (Epo1CCG (S. cerevisiae) [2])
1 | binds | – | Nub-Boi1 (protein, UniProt P38041 1-980) MSLEGNTLGKGAKSFPLYIAVNQYSKRMEDELNMKPGDKIKVITDDGEYNDGWYYGRNLRTKEEGLYPAVFTKRIAIEKPENLHKSPTQESGNSGVKYGNLNDSASNIGKVSSHQQENRYTSLKSTMSDIDKALEELRSGSVEQEVSKSPTRVPEVSTPQLQDEQTLIQEKTRNEENTTHDSLFSSTADLNLSSESLKNISKSNISTKSLEPSSESVRQLDLKMAKSWSPEEVTDYFSLVGFDQSTCNKFKEHQVSGKILLELELEHLKELEINSFGIRFQIFKEIRNIKSAIDSSSNKLDADYSTFAFENQAAQLMPAATVNRDEIQQQISSKCNKLSSESSDRKSSSVTTELQRPSSVVVNPNFKLHDPAEQILDMTEVPNLFADKDIFESPGRAPKPPSYPSPVQPPQSPSFNNRYTNNNARFPPQTTYPPKNKNPTVYSNGLIPNSSTSSDNSTGKFKFPAMNGHDSNSRKTTLTSATIPSINTVNTDESLPAISNISSNATSHHPNRNSVVYNNHKRTESGSSFVDLFNRISMLSPVKSSFDEEETKQPSKASRAVFDSARRKSSYGHSRDASLSEMKKHRRNSSILSFFSSKSQSNPTSPTKQTFTIDPAKMTSHSRSQSNSYSHARSQSYSHSRKHSLVTSPLKTSLSPINSKSNIALAHSETPTSSNNKEAVSQPSEGKHKHKHKHKSKHKHKNSSSKDGSSEEKSKKKLFSSTKESFVGSKEFKRSPSELTQKSTKSILPRSNAKKQQTSAFTEGIRSITAKESMQTADCSGWMSKKGTGAMGTWKQRFFTLHGTRLSYFTNTNDEKERGLIDITAHRVLPASDDDRLISLYAASLGKGKYCFKLVPPQPGSKKGLTFTEPRVHYFAVENKSEMKAWLSAIIKATIDIDTSVPVISSYATPTIPLSKAQTLLEEARLQTQLRDAEEEEGRDQFGWDDTQNKRNSNYPIEQDQFETSDYLESSAFEYPGGRL | no binding (only during PCDIII (bud neck))
2 | – | binds | Nub-Nba1 (protein, UniProt Q08229 1-501) MSEEREENGISRATLNTQRLSAMIDSLNNEKDDRLFPSPTTTRTMITEEKADQSDVFKPPSRLLRSPAGDVSLPPGDNRSSMISNYSGIIQEGVEVSYVVKNRQQTQERRTSKDSNSLYSLKEPVSKNELPSLPMLPSEATLTKHLSDNQSTKSNTNADEIVIKPVTNAKPVGRFNSNTSKKVEGRGSLKLLSSPLRQEKVMRSSIGSGNLASESGSSTYNTKFHQSIQEQLEEEEEGNVSDKLSIVSSVIPELYTTTNEAPKAINPIRSETNDYNPTIPPRSKDRPRSRLFIEEGDGEGDLLTEEILPTPVQPGGHYKNSSQISTVSEQKSESYYSAATSMPPEEETYLTRPLPSTPNEDSRVTSNLKRDDTLKAIHDRANHTSTSTNKQDDDMYEDIIEETPKKTKLKKDTKKKLNKKKSVKELRSFDIDTLNQLLSVTKGTLIGSEFAQLGMKIEEKRALERLVDSLSRLTADMVLDPDRYEEGLKRLDKATKALEGF | –
